Source: PubChem BioAssay AID1347431 (National Center for Advancing Translational Sciences (NCATS), 2020)
The campaign covered roughly 1,200 compounds. Fewer than 10 were called active. Calls follow the shape of the dose curve; as a rule, active = well fitted curve in the direction sought with a large enough effect; inconclusive = small, poorly fitted or top-dose-only effect, or another doubt; inactive = no such curve, though single readings can be large or run the other way. Some of the results follow.

assay: Confirmatory qHTS assay for inhibitors of Activation Induced Cytidine Deaminase (AID): UDG signals; conditions: UDG coupled enzyme activity counter-screen; at 115 µM (top of the series) unless noted; also: 0% is about no effect
Outline: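 Fluorescence at 560 nm excitation/665 nm emission reports UDG activity, read after NaOH quench of a 4 h room-temperature reaction of DJC20/DJC23 substrates with AID (1 uM, 4/3x) and UDG (2 U/mL, 4/3x); compounds at 7.32 nM - 114 uM final, preincubated 10 min.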

Row | SMILES | activity change, negative = inhibition
1 | Cc1ccc(NC(=O)c2oc3c(c2C)-c2[nH]ncc2CC3)c(Cl)c1 | inactive: -1.6%
2 | Cn1cc(S(=O)(=O)N2CCCCCC2)cc1C(=O)N1CCN(c2cccc(C(F)(F)F)c2)CC1 | inactive: -3.09%
3 | Cc1cccc(C(=O)Nc2nc3nc(-c4ccccc4)cc(=O)n3[nH]2)c1 | inactive: 2.7%
4 | CCN(CC)CCNC(=O)c1ccc2c(=O)n3nc(Nc4cccc(Cl)c4C)sc3nc2c1 | inactive: -22.4%
5 | CCn1cc(C(=O)NCCCOC(C)C)c(=O)c2cc(S(=O)(=O)N(C)C3CCCCC3)ccc21 | inactive: -12%
6 | COc1ccc(OC)c(/C=C(\C#N)c2nc3ccccc3c(=O)[nH]2)c1 | inactive: -0.698%
7 | COc1ccccc1N1CCN(CCCNC(=O)c2cnn(-c3ccc(C)c(C)c3)c2C2CCN(C(=O)OC(C)(C)C)CC2)CC1 | inactive: -10.4%
8 | Cc1oc(-c2cccc(Cl)c2)nc1CSCC(=O)NCc1ccccc1Cl | inactive: -2.08%
9 | CCCCN(C)CC(O)Cn1cc(/C=C/C(=O)c2ccc(C)cc2)c2ccccc21 (centres undefined) | inactive: -8.41%
10 | COc1ccc(N2CCN(C(=O)c3sc4nc5n(c(=O)c4c3C)CCC5)CC2)cc1 | inactive: -0.6%
11 | O=C(NCCn1cc(SCc2ccccc2F)c2ccccc21)c1cccs1 | inactive: -4.8%
12 | CCOC(=O)C1=C(CN2CCN(c3ccc(C)cc3C)CC2)NC(=O)NC1c1ccc(OC)cc1 (centres undefined) | inactive: -11.4%
13 | Cc1ccc(-n2c(=O)c3oc4ccccc4c3n(Cc3cccc(F)c3)c2=O)cc1C | inactive: 1.83%
14 | COc1ccc(-c2cc(C(F)(F)F)nc(SCC(=O)N(C)Cc3ccccc3)n2)cc1 | inactive: -8.02%
15 | Cc1cccc(CSc2ccc3nnc(CCNS(=O)(=O)c4ccccc4)n3n2)c1 | inactive: -0.143%
16 | Cc1nn(C(=O)c2ccccc2)c(C)c1Sc1ccc(Cl)cc1 | inactive: -0.373%
17 | Cc1ccc(C2=NN(CC(=O)NCCCN(CC(C)C)CC(C)C)C(=O)CC2)cc1 | inactive: -15.8%
18 | CCCN(CCC)CCNC(=O)c1cc2c(-c3ccc(Cl)cc3)nn(C)c2s1 | inactive: -0.229%
19 | CSc1cccc(NC(=O)CC(c2cccs2)N2Cc3ccccc3C2=O)c1 (centres undefined) | inactive: -5.93%
20 | CCCCN(CCCC)CCNC(=O)c1cn(CC)c2ccc(S(=O)(=O)N3CCc4ccccc4C3)cc2c1=O | inactive: -19.4%
21 | Cc1ccc(C)c(CSc2ccc3nnc(CCNS(=O)(=O)c4ccccc4)n3n2)c1 | inactive: 3.13%
22 | CC1CCCN(C(=O)c2cc3c(Cl)nc4ccccc4c3s2)C1 (centres undefined) | inactive: -4.27%
23 | Cc1cccc(C)c1-n1ncc(C(=O)N2CCN(c3ccccc3)CC2)c1C1CCN(C(=O)OC(C)(C)C)CC1 | inactive: -4.12%
24 | Cc1nc2nc(SCC(=O)NCc3ccccc3Cl)nn2c(C)c1Cc1ccccc1 | inactive: -2.93%
25 | Fc1cc(Br)ccc1Nc1c2c(nc3nc(-c4cccs4)nn13)CCCC2 | inactive: 4.72%
26 | CCn1cc(C(=O)NCc2ccccc2OC)c(=O)c2cc(S(=O)(=O)N3CCCCC3)ccc21 | inactive: -14.6%
27 | Cc1ccc(C)c(OCCn2cc(C(=O)c3ccco3)c3ccccc32)c1 | inactive: -1.66%

Row | SMILES | activity change, negative = inhibition
28 | CCc1ccc(OCC(=O)N(Cc2ccc(Cl)cc2)C2CCS(=O)(=O)C2)cc1 (centres undefined) | inactive: -1.47%
29 | Cc1cccc(NC(=O)c2c(NC(=O)C(F)(F)F)sc3c2CCCCC3)c1 | inactive: 3.54%
30 | CCCCN(CC)CCNC(=O)c1cc2c(=O)oc3ccc(C)cc3c2s1 | inactive: 3.87%
31 | O=C(NCCc1csc(-c2ccc(Cl)cc2)n1)c1cccs1 | inactive: -5.22%
32 | CCN(CC)C(=O)CSc1nc(-c2ccccc2F)nc2c1Cc1c(CO)cnc(C)c1O2 | inactive: -0.876%
33 | CN(c1ncnc2onc(-c3cccc(Cl)c3)c12)C1CCCCC1 | inactive: -5.73%
34 | Cc1ccc(Cc2nc3ccccc3nc2SCC(=O)N2CCCCC2)cc1 | inactive: 9.18%
35 | COc1ccc(CSc2nc3ccncc3n2Cc2nc(-c3ccc(OC)c(OC)c3)oc2C)cc1 | inactive: 3.79%
36 | CCCCSCCCNC(=O)c1cn(CC)c2ccc(S(=O)(=O)N(C)C3CCCCC3)cc2c1=O | inactive: -17.5%
37 | Cc1ccc(-c2noc(CN(C(=O)c3ccc(C(C)(C)C)cc3)C(C)C)n2)cc1 | inactive: -12.6%
38 | CCOC(=O)C1=C(CN(CC)Cc2ccccc2)NC(=O)NC1c1ccc(Cl)cc1 (centres undefined) | inactive: -4.27%
39 | CCOC(=O)c1cnn(-c2cccc(Cl)c2)c1C1CCN(C(=O)OC(C)(C)C)CC1 | inactive: -10.2%
40 | Cc1ccc(Nc2c3c(nc4ccccc24)CCC3)cc1F | inactive: -1.36%
41 | CCN(C(=O)c1nn(C)c2c1CSc1ccccc1-2)c1cccc(C)c1 | inactive: -5.02%
42 | CCC1=Nc2cc(C(=O)N3CCC(C)CC3)ccc2Sc2ccc(C)cc21 | inactive: -10.5%
43 | Cc1ccccc1-c1nc(CS(=O)CC(=O)N2CCN(c3cc(Cl)ccc3C)CC2)c(C)o1 (centres undefined) | inactive: -9.14%
44 | Cc1[nH]c2ccccc2c1C(c1ccccc1)c1cccs1 (centres undefined) | inactive: -1.68%
45 | Cc1ccsc1CN(Cc1ccco1)C(=O)c1ccc(Cl)cc1 | inactive: 3.07%
46 | Cc1nc2c(-c3ccccc3)c(C)nn2c(C)c1CCC(=O)N1CCN(c2ccc(F)cc2)CC1 | inactive: 0.55%
47 | O=C(NCCc1ccccc1)c1sc2ncccc2c1-n1cccc1 | inactive: -7.47%
48 | C[C@]12C=CC(=O)C=C1CC[C@@H]1C2=CC[C@]2(C)[C@@H](C(=O)CN3CCN(c4cc(N5CCCC5)nc(N5CCCC5)n4)CC3)CC[C@@H]12 | inactive: -7.26%
49 | CCn1cc(C(=O)NCCc2ccc(C)cc2)c(=O)c2cc(S(=O)(=O)N3CCC(C)CC3)ccc21 | inactive: -9.56%
50 | Cc1ccccc1OCCCCn1c(CCNC(=O)C(C)(C)C)nc2ccccc21 | inactive: -7.53%
51 | Cc1cc(C)c(/C=C/c2onc(C)c2S(=O)(=O)N2CCC(C(=O)N3CCN(c4ccccc4)CC3)CC2)c(C)c1 | inactive: -10.8%
52 | O=C(CCCCn1c(=O)[nH]c2ccsc2c1=O)N1CCN(c2cccc(Cl)c2)CC1 | inactive: -5.96%
53 | Cc1ccc(-c2n[nH]c3c2C(c2cccc(O)c2)N(c2ccc(C(=O)O)cc2)C3=O)cc1 (centres undefined) | inactive: 3.33%
54 | Cc1ccc(C(=O)Nc2ccc(S(=O)(=O)O)c3cc(S(=O)(=O)O)cc(S(=O)(=O)O)c23)cc1NC(=O)c1cccc(NC(=O)Nc2cccc(C(=O)Nc3cc(C(=O)Nc4ccc(S(=O)(=O)O)c5cc(S(=O)(=O)O)cc(S(=O)(=O)O)c45)ccc3C)c2)c1 | inactive: -7.52%

Row | SMILES | activity change, negative = inhibition
55 | CN(Cc1ccc(F)cc1)S(=O)(=O)c1nnc(NC(=O)c2ccccc2Br)s1 | inactive: 6.01%
56 | CCN(CC)CC(C)CNC(=O)c1cc(-c2ccc(Br)s2)nc2ccccc12 (centres undefined) | inactive: -4.76%
57 | COc1ccc(C)cc1NC(=O)c1ccc2c(SCC(=O)O)c3c(nc2c1)CCCC3 | inactive: -1.88%
58 | COc1ccc(-c2nc(CSCC(=O)N3CCN(c4cccc(C)c4C)CC3)c(C)o2)cc1OC | inactive: -5.7%
59 | COc1cccc(CNC(=O)c2oc3c(c2C)-c2nn(Cc4cccc(Cl)c4)cc2CC3)c1OC | inactive: -5.41%
60 | Oc1ccc(NCc2ccccc2OCc2ccccc2F)cc1 | inactive: -18.7%
61 | Cc1ccc(C)c(N2CCN(C(=O)c3ccc4c(c3)N(Cc3ccc(F)cc3)C(=O)c3ccccc3S4=O)CC2)c1 (centres undefined) | inactive: -5.84%
62 | Cc1cc(N)c(-n2cc3c(c2-c2ccc(Br)cc2)c(=O)n(C)c(=O)n3C)cc1C | inactive: -5.86%
63 | Cc1cccc(N2CCN(C(=O)c3ccc(CS(=O)c4cccc(Cl)c4)o3)CC2)c1C (centres undefined) | inactive: -2.23%
64 | O=C1c2ccccc2C(=O)c2c(NCCc3ccc(O)cc3)ccc(NCCc3ccc(O)cc3)c21 | inactive: -0.428%
65 | CCC(C(=O)N1CCN(c2cc(C)ccc2C)CC1)n1nc(C)n2c(cc3occc32)c1=O (centres undefined) | inactive: -15%
66 | Cc1ccc(C)c(N2CCN(CCCNC(=O)c3ccc4nc(N5CCC(C)CC5)sc4c3)CC2)c1 | inactive: -8.72%
67 | CCOc1ccc(C(=O)c2cn(Cc3cccc(OC)c3)c3cc4c(cc3c2=O)OCO4)cc1 | inactive: -3.75%
68 | Cc1ccc(S(=O)(=O)N2CCCC2C(=O)Nc2ccc(Br)cc2)cc1 (centres undefined) | inactive: -3.38%
69 | CC(C)(C)OC(=O)N1CCC(c2c(C(=O)NCc3ccccc3)cnn2-c2ccc(F)cc2)CC1 | inactive: -5.29%
70 | CC(C)(C)C1CCc2c(sc(NC(=O)c3ccccc3F)c2C(=O)NCc2ccco2)C1 (centres undefined) | inactive: -16.7%
71 | O=C(c1cccn1-c1nnc(N2CCCCC2)s1)N1CCN(c2ccc(Cl)cc2)CC1 | inactive: -13.6%
72 | CCCOc1ccc(-c2cc(C(F)(F)F)c(C#N)c(SCCC(=O)O)n2)cc1 | inactive: 1.26%
73 | CC(=O)N1CCc2c(sc3c2c(=O)n(CCc2ccccc2)c(=O)n3Cc2ccccc2C)C1 | inactive: -5.14%
74 | Cc1cccc(C)c1NC(=O)CS(=O)(=O)c1nc(-c2ccc(Cl)cc2)cn1-c1ccccc1 | inactive: -12.5%
75 | COc1cccc(-n2c(-c3cccc(F)c3)nc3c(cnn3-c3ccc(C)cc3)c2=O)c1 | inactive: -14%
76 | CC(C)(C)c1ccc(-c2nc(SCC(=O)Nc3ccc(Cl)cc3)[nH]c(=O)c2C#N)cc1 | inactive: -7.66%
77 | CCN(CCCNC(=O)c1cc2c(Cl)nc3ccccc3c2s1)Cc1ccccc1 | inactive: 1.54%
78 | CCCN(C(=O)CCc1nc(-c2ccc(OC)cc2)no1)c1ccccc1F | inactive: -15.5%
79 | CC(C)(C)OC(=O)N1CCC(c2c(C(=O)NCCc3ccccc3)cnn2-c2ccc(F)cc2)CC1 | inactive: -2.07%
